The results in this text go back to patent US7745587.

Substitutions are numbered along the chain they refer to. No constants are given. Whether binding was seen depends on the method and setting. A result given as binding can be weak or reduced; the word gives no strength.

This assay concerns the target human MMP-14 (human). In words: phage display selection and phage ELISA screening on biotinylated MMP-14. (An ELISA detects its analyte on a solid surface through an enzyme-linked reagent.)

B1: M0043-A09 Fab (Fab, V domains shown)
VH: EVQLLESGGGLVQPGGSLRLSCAASGFTFSFYDMTWVRQAPGKGLEWVSSIWSSGGVTDYADSVKGRFTISRDNSKNTLYLQMNSLRAEDTAVYYCTRASSGYYDAFDIWGQGTMVTVSS
VL: QSVLTQPPSVSKDLRQTATLTCTGNSNNVGYQGAAWLQQHQGHPPKVLSYRNNNRPSGISERFSASRSGNTASLTITGLQPEDEADYYCSAWDSSLTAWVFGGGTKLTVL
In the case of B1, the binding result was “binds”.

B2: M0041-E11 Fab (Fab, V domains shown)
VH: EVQLLESGGGLVQPGGSLRLSCAASGFTFSQYNMQWVRQAPGKGLEWVSGIVPSGGWTPYADSVKGRFTISRDNSKNTLYLQMNSLRAEDTAVYYCARGVRYGLDYWGQGTLVTVSS
VL: DIQMTQSPSSLSAFVGDRVIITCRASQDISVYVNWYQQSSGKAPKLLIYGASSLQSGVPSRFSGSGSGTDFTLTISSLQPEDFASYFCQQSYNLPFTFGGGTNVQIK
B2: the binding result is “binds”.

B3: M0041-D03 Fab (Fab, V domains shown)
VH: EVQLLESGGGLVQPGGSLRLSCAASGFTFSFYNMTWVRQAPGKGLEWVSSIYSSGGNTDYADSVKGRFTISRDNSKNTLYLQMNSLRAEDTAVYYCARDSLSHYYYGMDVWGQGTTVTVSS
VL: DIQMTQSPSSLSASVGDRITVTCRASQSITNYLNWYQQKPGKAPKLLIYAASTLQSGVPSRFSGSGSGTDFTLTISRLEPEDFAVYYCQQYGSSPTFGQGTKVEVK
Regarding B3, the binding entry was “binds”.

B4: M0041-H09 Fab (Fab, V domains shown)
VH: EVQLLESGGGLVQPGGSLRLSCAASGFTFSVYEMTWVRQAPGKGLEWVSGIGSSGGMTFYADSVKGRFTISRDNSKNTLYLQMNSLRAEDTAVYYCARIRYSGSYGWHYMDVWGKGTTVTVSS
VL: DIQMTQSPGTLSLSPGERATLSCRASQSLSGDYLAWYQQKIGQAPRLLIFGASRRPTGIPDRFSGSGSGTDFALTISRLEPEDFAVYYCQQYGSLITFGQGTRLEIK
As to B4, the binding entry is reported as “binds”.

B5: M0042-B07 Fab (Fab, V domains shown)
VH: EVQLLESGGGLVQPGGSLRLSCAASGFTFSPYSMFWVRQAPGKGLEWVSVIYPSGGGTIYADSVKGRFTISRDNSKNTLYLQMNSLRAEDTAVYYCARSRESCDADTCYQYFQEWGQGTLVTVSS
VL: DIQMTQSPLSLPVTPGEPASISCRSSQSLLHSNGYNYLDWYVQKPGQSPQLLIYLGSGRASGVPDRFSGSGSGTDFTLKINRVEAEDVGVYYCMQALQTPWTFGQGTKVEIK
For the molecule B5, the binding entry is on record as “binds”.

B6: M0032-B09 Fab (Fab, V domains shown)
VH: EVQLLESGGGLVQPGGSLRLSCAASGFTFSIYKMVWVRQAPGKGLEWVSSIGSSGGHTRYADSVKGRFTISRDNSKNTLYLQMNSLRAEDTAVYYCARAPYYYYMDVWGKGTTVTVSS
VL: DIQMTQSPSSVSASVGDTVTITCRASQGISTWLAWYQHKPGKAPKLLIYAGPSLQSGVPSRFSGSGSGTEFTLTISSLHPEDFATYYCQQLNHYPMTFGQGTRLEIK
Take B6: the binding entry is recorded as “binds”.

B7: M0043-F01 Fab (Fab, V domains shown)
VH: EVQLLESGGGLVQPGGSLRLSCAASGFTFSKYSMYWVRQAPGKGLEWVSSISSSGGYTAYADSVKGRFTISRDNSKNTLYLQMNSLRAEDTAVYYCAIPWGSGSSWGQGTLVTVSS
VL: QSALTQPASVSGSPGQSITISCTGTSSDIGAYRYVSWYQQRPGKAPKLMIFDVTKRPSGVSNRFSGFKSGNTASLTISGLQAEDEADYYCSSFTSGSTFVFGTGTKVTVL
On to B7, for which the binding result was “binds”.

B8: M0032-B07 Fab (Fab, V domains shown)
VH: EVQLLESGGGLVQPGGSLRLSCAASGFTFSPYLMHWVRQAPGKGLEWVSSIYPSGGITQYADSVKGRFTISRDNSKNTLYLQMNSLRAEDTAVYYCARFFPSHRDYTAFDTWGRGTLVTVSS
VL: QSVLTQEPSLTVSPGGTVTLTCASNTGAVTSGSYANWFQQKPGLTPRALIYSGTNKYSWTPARFSGSLFGGKAALTLSGVLPEDEAEYYCLVYYGGVWVFGGGTKLTVL
With B8, the binding entry is reported as “binds”.

B9: M0043-C03 Fab (Fab, V domains shown)
VH: EVQLLESGGGLVQPGGSLRLSCAASGFTFSYYAMDWVRQAPGKGLEWVSSIGSSGGDTVYADSVKGRFTISRDNSKNTLYLQMNSLRAEDTATYYCARDPRQPGVFDYWGQGTLVTVSS
VL: DIQMTQSPASLYLSPGERATLSCRASQSVSSNLAWYQQKPGQAPRLLIYGASTRATGIPARFSGSGSGTEFTLTISSLQSADFAVYYCQQYDNWPPLTFGGGTKVEIK
On to B9, for which the binding entry is reported as “binds”.

B10: M0043-G01 Fab (Fab, V domains shown)
VH: EVQLLESGGGLVQPGGSLRLSCAASGFTFSFYSMHWVRQAPGKGLEWVSGISSSGGVTKYADSVKGRFTISRDNSKNTLYLQMNSLRAEDTAVYYCARARSTRGFDYWGQGTLVTVSS
VL: DIQMTQSPSAMSASVGDRVTITCRASQGISSWLAWYQQKPGKAPKLLIYAASSLQSGVPSRFSGSGSGTDFTLTISSLQPEDFATYYCQQANSFPLTFGGGTKVEIK
On to B10, for which the binding entry is listed as “binds”.

B11: M0044-B03 Fab (Fab, V domains shown)
VH: EVQLLESGGGLVQPGGSLRLSCAASGFTFSQYHMMWVRQAPGKGLEWVSSIGSSGYTKYADSVKGRFTISRDNSKNTLYLQMNSLRAEDTAVYYCAGAVAGTGAFDYWGQGTLVTVSS
VL: B10 VL with A10S, M11V, G28N, S30Y, K39R, Q55H, N92K, L96V
For the molecule B11, the binding result is on record as “binds”.
